Results are given in words; binding and its absence hold for the method and conditions named. Some results given as binding are weak or reduced against the parent protein; the word gives no strength. Values belong to the binder of their own block, whether it stands above or below them.
Columns and labels:
[1] = target: 白细胞免疫球蛋白样受体亚家族B成员2 (LILRB2, Leukocyte Immunoglobulin Like Receptor B2) (UniProt Q8N423); assay: competitive phage ELISA round 2 on coated LILRB2, HLA amount raised 4-fold
[2] = target: 白细胞免疫球蛋白样受体亚家族B成员2 (LILRB2, Leukocyte Immunoglobulin Like Receptor B2) (UniProt Q8N423); assay: monoclonal phage ELISA, 100 ng coated antigen per well, BSA as parallel negative control, OD450
[3] = target: 白细胞免疫球蛋白样受体亚家族B成员2 (LILRB2, Leukocyte Immunoglobulin Like Receptor B2) (UniProt Q8N423); assay: phage ELISA round 1 on coated LILRB2, anti-M13-HRP detection, OD450

Amino acid sequences for entries named in this document (tags omitted). Residues count along the entry.
UniProt Q8N423, residues 22-460: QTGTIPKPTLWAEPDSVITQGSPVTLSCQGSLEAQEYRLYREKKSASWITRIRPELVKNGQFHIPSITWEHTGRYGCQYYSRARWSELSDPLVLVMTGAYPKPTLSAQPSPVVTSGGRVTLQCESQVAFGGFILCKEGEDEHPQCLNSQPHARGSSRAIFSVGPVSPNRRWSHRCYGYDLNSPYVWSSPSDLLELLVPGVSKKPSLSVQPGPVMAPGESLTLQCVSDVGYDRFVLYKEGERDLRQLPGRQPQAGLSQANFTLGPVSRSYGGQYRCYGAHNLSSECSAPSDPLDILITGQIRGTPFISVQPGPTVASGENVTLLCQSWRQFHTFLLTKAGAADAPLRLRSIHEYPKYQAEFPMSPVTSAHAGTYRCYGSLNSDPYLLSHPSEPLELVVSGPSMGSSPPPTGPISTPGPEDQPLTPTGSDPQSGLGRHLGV

binding [1]: binds
binding [2]: binds
binding [3]: binds
B1: 白细胞免疫球蛋白样受体亚家族B成员2(LILRB2)的羊驼纳米抗体, SEQ ID No.4 (VHH)
VHH: AVQLVESGGGLVQVGGSLRLSCAASGRAFSGYYMGWFRQAPGKERVFVAVISWTGAFTYYADGARGRFTISRDTAKNTVYLQVNSLKPEDTAIYYCAAVEGRRSILPRDYNYWGQGTQVTVSS

binding [1]: binds
binding [2]: binds
binding [3]: binds
B2: 白细胞免疫球蛋白样受体亚家族B成员2(LILRB2)的羊驼纳米抗体, SEQ ID No.3 (VHH)
VHH: AVQLVESGGGLVQAGGSLRLSCAASGFSLEYYSIAWFRQAPGKEREGVSCINLSGDTREYLDSVKGRFAISRDNAKNTVYLQMNSLKPEDTAVYYCAAAWGGVVASFLDEYEYWGQGTQVTVSS
